Among the data in PMC9016070 are binding values, retold here.

The target in the assay is T1, FLAG-tagged GBP2 (guanylate-binding protein 2) (UniProt P32456).
T1 sequence: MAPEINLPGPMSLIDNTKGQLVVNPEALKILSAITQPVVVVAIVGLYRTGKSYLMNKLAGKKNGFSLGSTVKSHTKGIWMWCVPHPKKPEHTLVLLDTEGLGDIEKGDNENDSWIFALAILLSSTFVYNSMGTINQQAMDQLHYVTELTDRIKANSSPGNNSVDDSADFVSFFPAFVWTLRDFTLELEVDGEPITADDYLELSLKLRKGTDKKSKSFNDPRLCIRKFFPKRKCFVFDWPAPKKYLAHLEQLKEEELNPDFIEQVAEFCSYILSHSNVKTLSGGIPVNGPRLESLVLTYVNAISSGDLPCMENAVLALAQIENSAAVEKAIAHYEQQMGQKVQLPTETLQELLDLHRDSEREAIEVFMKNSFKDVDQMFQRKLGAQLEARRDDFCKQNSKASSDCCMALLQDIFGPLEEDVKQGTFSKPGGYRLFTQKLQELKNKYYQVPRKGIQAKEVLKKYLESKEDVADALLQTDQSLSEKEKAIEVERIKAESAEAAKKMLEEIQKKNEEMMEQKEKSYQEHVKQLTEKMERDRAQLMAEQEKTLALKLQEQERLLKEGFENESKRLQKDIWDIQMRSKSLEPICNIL
Kind of assay: affinity purification with mass spectrometry; anti-FLAG immunoprecipitation from 1 mg whole-cell extract of 293T cells overexpressing FLAG-GBP2, low-salt lysis buffer, 2 h at 4 °C, three washes; SDS-PAGE bands digested with trypsin, LC-MS/MS; compared with an IgG group.

No constants are given. Whether binding was seen depends on the method and setting. Binding seen in cells or lysates may run through a third protein. Here binding means that the protein was enriched with, or labelled near, the bait; the list need not be complete. Sequences can lack the tags named with a protein.

B1: kinesin family member 22 (KIF22) (protein, UniProt Q14807 1-665)
chain: MAAGGSTQQRRREMAAASAAAISGAGRCRLSKIGATRRPPPARVRVAVRLRPFVDGTAGASDPPCVRGMDSCSLEIANWRNHQETLKYQFDAFYGERSTQQDIYAGSVQPILRHLLEGQNASVLAYGPTGAGKTHTMLGSPEQPGVIPRALMDLLQLTREEGAEGRPWALSVTMSYLEIYQEKVLDLLDPASGDLVIREDCRGNILIPGLSQKPISSFADFERHFLPASRNRTVGATRLNQRSSRSHAVLLVKVDQRERLAPFRQREGKLYLIDLAGSEDNRRTGNKGLRLKESGAINTSLFVLGKVVDALNQGLPRVPYRDSKLTRLLQDSLGGSAHSILIANIAPERRFYLDTVSALNFAARSKEVINRPFTNESLQPHALGPVKLSQKELLGPPEAKRARGPEEEEIGSPEPMAAPASASQKLSPLQKLSSMDPAMLERLLSLDRLLASQGSQGAPLLSTPKRERMVLMKTVEEKDLEIERLKTKQKELEAKMLAQKAEEKENHCPTMLRPLSHRTVTGAKPLKKAVVMPLQLIQEQAASPNAEIHILKNKGRKRKLESLDALEPEEKAEDCWELQISPELLAHGRQKILDLLNEGSARDLRSLQRIGPKKAQLIVGWRELHGPFSQVEDLERVEGITGKQMESFLKANILGLAAGQRCGAS
As for B1, the binding entry is given as “binds”.
